In PubChem BioAssay AID493014 (National Center for Advancing Translational Sciences (NCATS), 2011):
The other results are listed elsewhere or left out. Shown are side measurements of this screen, not its main read-out; they come without a call. The list favours compounds with an active or inconclusive main result. Potencies come from curve fits of mixed quality, noted in brackets.

Assay: qHTS Assay to Find Inhibitors of Chronic Active B-Cell Receptor Signaling
Details: ABC-DLBCL IkBa-CBG/CBR reporter, luminescence ratio (green luciferase fused to IkBa over red control in TMD8 lymphoma cells), 4 h
Procedure, shortened: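 Cell line TMD8 (human ABC DLBCL), stably expressing tet-inducible CBG68-IkBa fusion and CBR; IMDM/0.5% FBS; cpd up to 46 uM; dox induction, 4 h, 37C/5% CO2; dual luminescence; green/red ratio; MG132 control.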

[1] = measured here: CBR red luminescence, cell number

| SMILES | AC50 [1] | AC50 (measured here: IkBa-CBG green luminescence) |
| --- | --- | --- |
| COc1ccccc1-c1cc(-c2cc(Cl)ccc2O)n[nH]1 | 20 µM [falling, single point] |  |
| CC(/C=N/NC(=O)c1ccccc1F)=C\c1ccccc1 | 20 µM [falling, partial curve, poor fit] |  |
| O=C1C=CC(=O)N1N(c1ccccc1)c1ccccc1 | 8.2 µM [falling, partial curve, poor fit] |  |
| CCC(=O)Nc1sc(C(=O)N2CCCCC2)c(C)c1C#N | 35.5 µM [rising, single point] |  |
| CC(C)=CC(=O)OCC(=O)NC(=O)NC(C)(C)C | 1.03 µM [falling, full curve, poor fit] |  |
| Cc1ccc(C(=O)NCCn2c(N)c(C#N)c3nc4ccccc4nc32)cc1 | 1.64 µM [rising, partial curve, poor fit] |  |
| COc1ccccc1CCNC(=O)c1ccc2nc[nH]c2c1 | 17.8 µM [falling, partial curve, poor fit] |  |
| Cc1onc(-c2ccccc2)c1C(=O)N/N=C/c1cc(Br)c(O)c(Br)c1 | 15.8 µM [rising, single point] |  |
| Fc1ccc(NC(=S)N2CCOCC2)c(F)c1 | 0.794 µM [rising, full curve, poor fit] |  |
| COc1ccccc1-c1c(C)nn2c(N)c(-c3ccccc3)cnc12 | 35.5 µM [falling, single point] |  |
| O=C(Nc1nnc(C2=COCCO2)o1)c1cccc(F)c1 | 4.47 µM [falling, partial curve] |  |
| O=C(N/N=C/C(Cl)=C\c1ccccc1)c1ccco1 | 22.4 µM [falling, single point] |  |
| N#Cc1c(SCC(=O)Nc2nc3ccccc3s2)sc2c(O)cc(=O)[nH]c12 | 18.4 µM [falling, partial curve] |  |
| O=C(NCCC1=CCCCC1)c1ccc2c(c1)ncn2-c1cccc(Cl)c1 | 3.55 µM [rising, full curve, poor fit] |  |
| COc1cc(-c2nc3cnccn3c2Nc2ccccc2)ccc1O | 23.1 µM [falling, single point] |  |
| CCOc1ccc2[nH]cc(C(=O)NCCCN3CCOCC3)c(=O)c2c1 | 0.891 µM [rising, full curve, poor fit] |  |
| O=C(CCCCCCN1C(=O)c2ccccc2C1=O)N1CCC(c2ccccc2)C1 (configuration not stated) |  | 32.6 µM [falling, partial curve, poor fit] |
| Cc1ccc(NC(=O)CSc2ncccc2C(=O)Oc2cccc([N+](=O)[O-])c2)cc1Cl | 0.651 µM [falling, full curve, poor fit] |  |
| C=CCNC(=O)COCc1cc(-c2ccc3c(c2)OCO3)on1 | 15.8 µM [rising, single point] |  |
| O=C(O)c1cccc(NS(=O)(=O)c2ccc3nnn(O)c3c2)c1 | 2.91 µM [rising, single point] |  |
| COc1ccc(NC(=O)Cn2c(-c3ccc(OC)cc3)cn(-c3ccc(C)cc3)c2=O)cc1 | 29.1 µM [rising, single point] |  |

| SMILES | AC50 [1] | AC50 (measured here: IkBa-CBG green luminescence) |
| --- | --- | --- |
| CN(C(=O)c1c[nH]c(=O)cc1C(F)(F)F)c1ccc(Cl)cc1 | 2.51 µM [rising, full curve, poor fit] |  |
| Cc1cccc(NC(=O)C2CCN(c3ncnc4c3nc3n4CCCCC3)CC2)n1 | 10 µM [falling, partial curve] |  |
| CC(C)NC(=O)c1onc(CSc2cccc(Cl)c2)c1C(=O)O | 35.5 µM [falling, single point] |  |
| O=C(COC(=O)C12CC3CC(CC(C3)C1)C2)Nc1ncc(Cl)cc1Cl | 29.1 µM [rising, single point] |  |
| O=C(Cc1c[nH]c2ccccc12)OCCOC(=O)Cc1c[nH]c2ccccc12 | 18.4 µM [falling, single point] |  |
| COc1ccc2cc(C(C)c3nc4ccccc4c(=O)n3N)ccc2c1 (configuration not stated) | 29.1 µM [falling, single point] |  |
| NC(=O)CC1(CC(=O)O)CCCCC1 | 0.58 µM [rising, full curve] |  |
| O=C(CCCC(=O)c1ccc(F)cc1)c1ccc(F)cc1 | 14.1 µM [rising, single point] |  |
| COc1cccc(NC(=O)COc2ccc3c(c2)CCC3)c1 | 10 µM [falling, partial curve, poor fit] |  |
| Cc1cc(C(=O)COC(=O)c2ccc(O)cc2O)c(C)n1C(C)C | 29.1 µM [falling, single point] |  |
| C[C@H]1NC(=O)[C@@]2(C)[C@@H](c3ccccc3)[C@H]3COc4ccccc4[C@H]3N2C1=O | 29.1 µM [falling, single point] |  |
| COCCCNC(=O)C[C@H]1C[C@H](C(=O)N2CCCCC2)[C@@]2(CCc3ccccc3)c3[nH]c4cc(-c5ccco5)ccc4c3CCN2C1=O | 23.1 µM [falling, single point] |  |
| COc1ccc(/C=N/N=C2/C(=O)Nc3ccccc32)cc1O | 15.8 µM [falling, partial curve] |  |
| COc1ccc(C(=O)NCCS(=O)(=O)N(C)C2CCCCC2)cc1 | 9.2 µM [rising, partial curve, poor fit] |  |
| CC(=O)c1cccc(NC(=O)C(=O)Nc2cccc3ccccc23)c1 | 6.31 µM [falling, partial curve, poor fit] |  |
| COC(=O)c1cc(NC(=O)CSc2ncn[nH]2)ccc1Cl | 6.31 µM [falling, full curve] |  |
| CC(C)OCCCNC(=O)c1ccc(NC(=O)C2=CSCCO2)cc1 | 0.112 µM [rising, full curve, poor fit] |  |
| COc1ccc(-c2nc(CS(=O)CC(=O)NCc3cccnc3)c(C)o2)cc1OC (configuration not stated) | 3.66 µM [rising, partial curve, poor fit] |  |
| COc1cc(OC)cc(C(=O)NC(=S)N2CCN(c3ccc(C(F)(F)F)cc3[N+](=O)[O-])CC2)c1 | 0.158 µM [falling, full curve, poor fit] |  |
| CCOC(=O)c1ccc(NC(=S)Nc2cccc(N)n2)cc1 | 35.5 µM [falling, single point] |  |
| CCCCC1=C(C(=O)OCC)C(C(=O)OCC)Oc2ccccc21 (configuration not stated) | 18.4 µM [rising, partial curve, poor fit] |  |

Some of these compounds in order of molecular weight, smallest number first.

| SMILES | AC50 [1] | AC50 (measured here: IkBa-CBG green luminescence) |
| --- | --- | --- |
| CN(C(=O)c1c[nH]c(=O)cc1C(F)(F)F)c1ccc(Cl)cc1 | 2.51 µM [rising, full curve, poor fit] |  |
| O=C(Cc1c[nH]c2ccccc12)OCCOC(=O)Cc1c[nH]c2ccccc12 | 18.4 µM [falling, single point] |  |
| COc1cc(OC)cc(C(=O)NC(=S)N2CCN(c3ccc(C(F)(F)F)cc3[N+](=O)[O-])CC2)c1 | 0.158 µM [falling, full curve, poor fit] |  |
